Experimental data reported in article PMC12709185.
No constants are given. Whether binding was seen depends on the method and setting. In cells and extracts the contact can be indirect. Binding calls can cover weak binding; strength is not graded here. Sequences can lack the tags named with a protein.

The chains behind the UniProt entries cited, without tags or fusion partners. Where a name states a change or a piece, a line headed by the entry shows the natural chain unless it says otherwise.
UniProt Q9U2U0: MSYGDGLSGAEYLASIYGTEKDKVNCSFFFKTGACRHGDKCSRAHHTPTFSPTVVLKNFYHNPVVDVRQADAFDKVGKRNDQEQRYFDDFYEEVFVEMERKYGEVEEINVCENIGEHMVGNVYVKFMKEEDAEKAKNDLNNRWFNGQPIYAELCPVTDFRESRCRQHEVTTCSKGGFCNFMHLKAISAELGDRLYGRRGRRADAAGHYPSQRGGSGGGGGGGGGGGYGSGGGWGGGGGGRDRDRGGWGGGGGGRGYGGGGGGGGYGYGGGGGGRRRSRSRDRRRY

Target: UAF-2::HA (C. elegans UAF-2, wild type) (C. elegans) (UniProt Q9U2U0)
Assay: pull-down; lysate (NP-40 buffer) of HEK293T cells expressing UAF-2::HA incubated overnight at 4°C with purified His::UAF-1::FLAG and Protein A/G magnetic beads carrying anti-HA antibody; washed 5 times with 1 x PBST; western blot; only the binder purified

B1: His::UAF-1(T180I)::FLAG (C. elegans UAF-1 T180I) (protein, UniProt P90978-1 1-496)
chain: MSDHQDGMKLEDIERQFLDVAQREGGLEAIQPTTGPLENEENLKSSTGGGGGEDDNDRKKRKRSRSRDRDTRRRSRSRDRGERRGGGGGGDRDRSRSRERRRGGGGRDEPRRRGGDDEARSRREPEPQKPREPKKYRFWDVPPTGFETTTPMEYKNMQAAGQVPRGSVQSAVPVVGPSVICQSRRLYVGNIPFGCNEEAMLDFFNQQMHLCGLAQAPGNPILLCQINLDKNFAFIEFRSIDETTAGMAFDGINFMGQQLKVRRPRDYQPSQNTFDMNSRMPVSTIVVDSANKIFIGGLPNYLTEDQVKELLCSFGPLKAFSLNVDSQGNSKGYAFAEYLDPTLTDQAIAGLNGMQLGDKQLVVQLACANQQRHNTNLPNSASAIAGIDLSQGAGRATEILCLMNMVTEDELKADDEYEEILEDVRDECSKYGIVRSLEIPRPYEDHPVPGVGKVFVEFASTSDCQRAQAALTGRKFANRTVVTSYYDVDKYHNRQF
binding: binds
